From the supplement of paper PMC12823440, “Inhibitors supercharge kinase turnover through native proteolytic circuits” (Nature, 2025)
The list shows a part of the results. Hit calls seldom repeat between salt and free forms of one compound.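 Kinases were expressed as nanoluciferase fusions in K562 cells and luminescence was read every 4 h between 2 and 18 h as percent of control, DMSO set to 100% and a positive control to 0%. A time point counts as decreased when the signal drops significantly (2 sigma). The hit call is the authors' own, does not follow from the count of time points alone, and its rule is not shown.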

Amino acid sequences for entries named in this document (tags omitted). A change or cut given only in a name is not applied to a line headed by its entry.
UniProt P36888, whole entry: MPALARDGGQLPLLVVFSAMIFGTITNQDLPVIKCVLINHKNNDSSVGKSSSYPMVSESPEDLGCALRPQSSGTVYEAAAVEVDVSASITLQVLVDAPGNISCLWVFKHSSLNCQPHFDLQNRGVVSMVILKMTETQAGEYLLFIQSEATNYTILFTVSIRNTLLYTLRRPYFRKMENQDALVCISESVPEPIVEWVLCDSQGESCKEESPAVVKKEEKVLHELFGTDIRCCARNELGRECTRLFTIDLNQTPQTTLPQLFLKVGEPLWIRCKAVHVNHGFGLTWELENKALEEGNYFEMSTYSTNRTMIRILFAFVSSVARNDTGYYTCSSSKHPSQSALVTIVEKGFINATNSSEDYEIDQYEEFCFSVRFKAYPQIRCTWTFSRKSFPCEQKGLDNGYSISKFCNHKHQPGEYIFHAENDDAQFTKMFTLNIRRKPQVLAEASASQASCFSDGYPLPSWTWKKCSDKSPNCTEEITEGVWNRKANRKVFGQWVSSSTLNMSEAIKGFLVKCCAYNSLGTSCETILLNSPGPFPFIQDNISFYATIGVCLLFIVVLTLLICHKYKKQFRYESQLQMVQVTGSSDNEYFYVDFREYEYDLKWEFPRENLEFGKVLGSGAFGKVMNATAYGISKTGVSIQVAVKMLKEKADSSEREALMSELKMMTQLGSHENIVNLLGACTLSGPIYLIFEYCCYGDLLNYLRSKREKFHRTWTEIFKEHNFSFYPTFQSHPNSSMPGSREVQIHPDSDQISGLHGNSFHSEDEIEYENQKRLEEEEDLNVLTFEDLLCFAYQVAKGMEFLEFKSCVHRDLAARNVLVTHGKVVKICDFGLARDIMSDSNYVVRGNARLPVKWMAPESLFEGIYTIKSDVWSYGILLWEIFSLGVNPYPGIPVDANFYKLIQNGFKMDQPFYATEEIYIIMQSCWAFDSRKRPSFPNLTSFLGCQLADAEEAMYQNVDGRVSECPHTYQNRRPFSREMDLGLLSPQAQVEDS
UniProt P49840: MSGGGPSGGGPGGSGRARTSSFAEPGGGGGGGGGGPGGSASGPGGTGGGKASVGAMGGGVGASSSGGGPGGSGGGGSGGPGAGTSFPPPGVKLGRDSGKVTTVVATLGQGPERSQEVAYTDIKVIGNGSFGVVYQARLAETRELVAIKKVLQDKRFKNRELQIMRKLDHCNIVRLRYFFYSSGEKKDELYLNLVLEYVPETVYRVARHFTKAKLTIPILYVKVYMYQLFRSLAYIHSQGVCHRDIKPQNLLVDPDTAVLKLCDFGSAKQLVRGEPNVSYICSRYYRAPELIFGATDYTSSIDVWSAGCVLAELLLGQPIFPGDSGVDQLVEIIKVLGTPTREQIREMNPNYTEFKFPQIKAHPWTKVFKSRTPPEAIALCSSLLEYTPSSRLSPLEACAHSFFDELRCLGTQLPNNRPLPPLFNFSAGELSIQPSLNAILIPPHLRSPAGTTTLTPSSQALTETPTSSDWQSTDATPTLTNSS
UniProt P23458: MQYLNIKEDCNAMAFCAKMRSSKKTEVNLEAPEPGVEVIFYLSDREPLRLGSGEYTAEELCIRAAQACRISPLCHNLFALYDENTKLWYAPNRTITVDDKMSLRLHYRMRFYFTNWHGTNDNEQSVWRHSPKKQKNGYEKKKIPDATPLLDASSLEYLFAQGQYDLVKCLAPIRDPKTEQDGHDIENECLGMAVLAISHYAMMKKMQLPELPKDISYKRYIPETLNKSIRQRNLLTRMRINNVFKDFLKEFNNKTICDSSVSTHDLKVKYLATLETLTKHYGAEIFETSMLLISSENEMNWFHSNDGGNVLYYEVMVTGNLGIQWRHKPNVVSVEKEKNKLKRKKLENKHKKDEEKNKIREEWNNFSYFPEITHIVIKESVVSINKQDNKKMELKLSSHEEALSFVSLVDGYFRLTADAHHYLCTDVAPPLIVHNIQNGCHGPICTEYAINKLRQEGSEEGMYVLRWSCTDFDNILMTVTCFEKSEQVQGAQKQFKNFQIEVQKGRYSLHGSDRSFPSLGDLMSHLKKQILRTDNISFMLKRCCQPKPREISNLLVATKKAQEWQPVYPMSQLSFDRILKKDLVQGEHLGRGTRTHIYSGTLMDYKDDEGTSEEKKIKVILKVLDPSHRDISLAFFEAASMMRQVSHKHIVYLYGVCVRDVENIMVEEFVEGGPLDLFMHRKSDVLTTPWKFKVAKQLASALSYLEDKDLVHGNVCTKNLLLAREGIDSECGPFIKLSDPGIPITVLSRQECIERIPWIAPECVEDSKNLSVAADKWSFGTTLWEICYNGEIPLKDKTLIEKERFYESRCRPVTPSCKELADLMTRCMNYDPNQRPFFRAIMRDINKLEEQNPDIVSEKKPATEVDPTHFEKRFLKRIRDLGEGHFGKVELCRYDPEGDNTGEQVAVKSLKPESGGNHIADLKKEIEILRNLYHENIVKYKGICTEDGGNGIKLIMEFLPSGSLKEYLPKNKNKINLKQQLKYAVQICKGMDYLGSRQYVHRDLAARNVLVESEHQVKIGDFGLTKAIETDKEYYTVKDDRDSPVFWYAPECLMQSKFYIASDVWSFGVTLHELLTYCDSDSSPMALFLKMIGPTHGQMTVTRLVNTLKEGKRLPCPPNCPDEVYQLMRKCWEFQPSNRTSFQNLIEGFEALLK
UniProt P06239: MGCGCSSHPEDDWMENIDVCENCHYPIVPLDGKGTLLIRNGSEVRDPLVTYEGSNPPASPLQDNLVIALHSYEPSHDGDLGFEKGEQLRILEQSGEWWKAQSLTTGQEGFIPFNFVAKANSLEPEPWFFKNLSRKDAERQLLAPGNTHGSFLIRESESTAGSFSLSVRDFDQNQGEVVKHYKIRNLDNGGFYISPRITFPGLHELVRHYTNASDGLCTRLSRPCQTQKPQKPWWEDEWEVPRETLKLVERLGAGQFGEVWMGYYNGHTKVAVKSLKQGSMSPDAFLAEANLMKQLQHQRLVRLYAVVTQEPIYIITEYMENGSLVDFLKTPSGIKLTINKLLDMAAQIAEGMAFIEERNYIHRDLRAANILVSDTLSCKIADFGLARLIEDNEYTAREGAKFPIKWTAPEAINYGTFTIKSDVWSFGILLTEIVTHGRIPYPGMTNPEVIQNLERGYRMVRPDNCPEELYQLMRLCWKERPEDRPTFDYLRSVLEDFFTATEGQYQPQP
UniProt P07948: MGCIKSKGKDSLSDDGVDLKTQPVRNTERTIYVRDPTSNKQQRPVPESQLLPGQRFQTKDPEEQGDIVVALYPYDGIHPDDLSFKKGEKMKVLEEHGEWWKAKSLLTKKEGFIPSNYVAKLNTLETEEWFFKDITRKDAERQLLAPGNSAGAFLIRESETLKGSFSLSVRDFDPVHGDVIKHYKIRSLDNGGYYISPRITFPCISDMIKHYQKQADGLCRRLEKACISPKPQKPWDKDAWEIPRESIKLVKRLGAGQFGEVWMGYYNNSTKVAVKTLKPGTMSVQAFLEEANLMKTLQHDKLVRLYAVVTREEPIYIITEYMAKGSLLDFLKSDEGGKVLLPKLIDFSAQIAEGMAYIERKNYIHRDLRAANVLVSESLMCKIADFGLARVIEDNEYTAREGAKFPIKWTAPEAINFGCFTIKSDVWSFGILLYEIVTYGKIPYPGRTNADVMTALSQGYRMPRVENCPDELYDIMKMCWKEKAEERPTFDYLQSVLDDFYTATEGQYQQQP
UniProt Q12851: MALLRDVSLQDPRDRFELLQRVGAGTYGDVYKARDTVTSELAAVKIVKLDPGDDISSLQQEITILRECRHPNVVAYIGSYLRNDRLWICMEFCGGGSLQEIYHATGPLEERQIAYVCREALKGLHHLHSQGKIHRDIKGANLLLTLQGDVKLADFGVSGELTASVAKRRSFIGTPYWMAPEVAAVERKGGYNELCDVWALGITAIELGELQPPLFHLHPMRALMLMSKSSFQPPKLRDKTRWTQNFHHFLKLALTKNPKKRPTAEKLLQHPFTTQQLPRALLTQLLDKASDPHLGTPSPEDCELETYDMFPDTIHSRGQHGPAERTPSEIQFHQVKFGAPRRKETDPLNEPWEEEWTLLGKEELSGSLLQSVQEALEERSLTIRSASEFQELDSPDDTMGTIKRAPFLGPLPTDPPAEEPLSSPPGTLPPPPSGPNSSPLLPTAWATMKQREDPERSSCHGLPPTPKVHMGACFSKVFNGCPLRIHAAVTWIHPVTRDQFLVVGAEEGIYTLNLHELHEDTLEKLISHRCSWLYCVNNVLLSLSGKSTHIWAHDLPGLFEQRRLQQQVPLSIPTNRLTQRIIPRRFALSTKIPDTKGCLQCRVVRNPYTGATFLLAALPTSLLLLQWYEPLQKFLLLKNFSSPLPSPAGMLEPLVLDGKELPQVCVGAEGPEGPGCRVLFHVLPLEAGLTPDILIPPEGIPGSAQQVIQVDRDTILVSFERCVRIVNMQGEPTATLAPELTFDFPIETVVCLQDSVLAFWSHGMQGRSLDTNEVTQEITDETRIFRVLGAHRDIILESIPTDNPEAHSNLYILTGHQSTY
UniProt P28482, whole entry: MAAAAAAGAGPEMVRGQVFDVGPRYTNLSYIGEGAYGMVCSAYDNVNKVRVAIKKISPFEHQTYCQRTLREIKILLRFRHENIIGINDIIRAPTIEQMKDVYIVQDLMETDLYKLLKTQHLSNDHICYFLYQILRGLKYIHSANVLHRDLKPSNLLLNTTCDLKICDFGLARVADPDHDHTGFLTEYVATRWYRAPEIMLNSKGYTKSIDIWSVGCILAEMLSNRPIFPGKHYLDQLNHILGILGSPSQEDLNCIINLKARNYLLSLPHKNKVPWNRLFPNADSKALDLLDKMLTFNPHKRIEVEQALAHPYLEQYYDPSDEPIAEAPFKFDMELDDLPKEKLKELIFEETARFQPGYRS
UniProt P49137, whole entry, looked up: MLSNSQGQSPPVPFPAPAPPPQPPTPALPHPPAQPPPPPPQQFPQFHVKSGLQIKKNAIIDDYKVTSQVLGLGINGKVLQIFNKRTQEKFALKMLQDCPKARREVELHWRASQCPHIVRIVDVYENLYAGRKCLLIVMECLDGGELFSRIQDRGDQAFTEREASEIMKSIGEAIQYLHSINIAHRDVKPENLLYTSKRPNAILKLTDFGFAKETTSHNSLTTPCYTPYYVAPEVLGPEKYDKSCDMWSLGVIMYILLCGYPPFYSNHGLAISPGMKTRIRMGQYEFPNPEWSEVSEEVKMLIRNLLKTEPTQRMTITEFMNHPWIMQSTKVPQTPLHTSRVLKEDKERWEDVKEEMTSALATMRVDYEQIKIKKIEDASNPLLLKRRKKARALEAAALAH
UniProt Q9BUB5: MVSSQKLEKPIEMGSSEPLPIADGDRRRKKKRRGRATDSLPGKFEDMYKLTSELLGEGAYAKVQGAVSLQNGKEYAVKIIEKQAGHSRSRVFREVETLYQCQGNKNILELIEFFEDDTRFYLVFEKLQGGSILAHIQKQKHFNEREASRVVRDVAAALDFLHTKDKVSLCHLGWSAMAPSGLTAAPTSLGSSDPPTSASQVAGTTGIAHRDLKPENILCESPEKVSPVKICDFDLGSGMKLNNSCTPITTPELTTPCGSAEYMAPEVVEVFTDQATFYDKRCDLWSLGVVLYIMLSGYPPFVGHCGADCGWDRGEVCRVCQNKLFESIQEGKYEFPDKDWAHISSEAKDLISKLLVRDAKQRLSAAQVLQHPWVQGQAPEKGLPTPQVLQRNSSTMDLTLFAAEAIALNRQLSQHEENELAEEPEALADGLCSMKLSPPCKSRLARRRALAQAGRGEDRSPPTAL
UniProt Q16620, whole entry, looked up: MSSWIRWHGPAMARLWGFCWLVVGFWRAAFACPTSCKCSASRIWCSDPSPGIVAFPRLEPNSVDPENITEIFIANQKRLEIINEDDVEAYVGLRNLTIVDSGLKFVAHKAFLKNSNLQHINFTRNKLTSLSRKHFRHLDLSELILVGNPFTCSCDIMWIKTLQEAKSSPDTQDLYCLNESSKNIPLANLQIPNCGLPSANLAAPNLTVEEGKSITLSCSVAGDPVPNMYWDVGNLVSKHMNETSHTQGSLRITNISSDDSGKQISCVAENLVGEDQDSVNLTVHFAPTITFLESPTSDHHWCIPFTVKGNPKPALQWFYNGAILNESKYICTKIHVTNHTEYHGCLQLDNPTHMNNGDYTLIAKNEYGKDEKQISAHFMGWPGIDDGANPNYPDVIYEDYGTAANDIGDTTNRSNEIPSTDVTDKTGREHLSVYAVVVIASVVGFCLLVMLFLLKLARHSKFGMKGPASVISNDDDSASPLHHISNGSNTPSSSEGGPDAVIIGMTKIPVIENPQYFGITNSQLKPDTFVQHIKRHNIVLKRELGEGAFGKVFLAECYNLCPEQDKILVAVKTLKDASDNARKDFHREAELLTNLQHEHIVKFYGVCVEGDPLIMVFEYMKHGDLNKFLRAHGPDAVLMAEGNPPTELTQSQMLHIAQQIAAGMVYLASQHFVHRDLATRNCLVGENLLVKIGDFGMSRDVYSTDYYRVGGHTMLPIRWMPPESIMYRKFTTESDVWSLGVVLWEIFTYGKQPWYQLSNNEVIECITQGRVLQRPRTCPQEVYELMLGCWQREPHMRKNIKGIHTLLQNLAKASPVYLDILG

Tests used:
Assay in all cases: number of time points (of 5) at which kinase-Nluc abundance scored as decreased, DMSO-normalised (count); higher = more persistent destabilization
Settings in all cases: K562; 2-18 h
FLT3 = FLT3 (UniProt P36888)
FYN = FYN (UniProt P06241)
GSK3A = GSK3A (UniProt P49840)
HER2 = HER2 (UniProt P04626)
INSRR = INSRR (UniProt P14616)
IRAK3 = IRAK3 (UniProt Q9Y616)
JAK1 = JAK1 (UniProt P23458)
LCK = LCK (UniProt P06239)
LIMK1 = LIMK1 (UniProt P53667)
LIMK2 = LIMK2 (UniProt P53671)
LMTK2 = LMTK2 (UniProt Q8IWU2)
LYN = LYN (UniProt P07948)
MAP2K1 = MAP2K1 (UniProt Q02750)
MAP2K2 = MAP2K2 (UniProt P36507)
MAP4K2 = MAP4K2 (UniProt Q12851)
MAPK1 = MAPK1 (UniProt P28482)
MAPK4 = MAPK4 (UniProt P31152)
MAPKAPK2 = MAPKAPK2 (UniProt P49137)
MKNK1 = MKNK1 (UniProt Q9BUB5)
NTRK2 = NTRK2 (UniProt Q16620)

Measured: number of time points

CC1=C2C(=O)O[C@@H](c3ccoc3)[C@]2(C)CCC1 [Fraxinellone] (10 µM)
0: all assays above

CS(=O)(=O)c1ccc(-c2cnc(N)c(C(=O)Nc3ccccc3)n2)cc1 (10 µM)
0: all assays above

Cn1cc(-c2ccc(CNc3cc(-c4cnc5cc(OCCCN6CCCC6)ccn45)ncn3)cc2)cn1 (10 µM)
0: all assays above
